{"source": "patent US20090253755A1", "about": "“N-[(PYRIDIN-2-YL) METHOXY] BENZAMIDE DERIVATIVES AND RELATED COMPOUNDS AS FUNGICIDES” (Bayer Cropscience SA, priority 2006, published 2009)", "key": {"[1]": {"system": "Alternaria brassicae", "assay": "In vivo test on Alternaria brassicae (leaf spot of crucifers) on radish plants", "details": "dose of 310 ppm; radish plants sprayed 24 h before contamination; grading 6 to 7 days after contamination vs control plants"}, "[2]": {"system": "Alternaria alternata", "assay": "Cell test on Alternaria alternata", "type": "cell-based", "details": "dose of 2 ppm; OD measurement at 620 nm after 5 days at 20° C. in comparison with a control", "protocol": "Cell Test on Alternaria alternata\nThe growth of Alternaria alternata is performed on PDA medium at 20° C. under black light during 14 days. The PDA medium is prepared by mixing 39 grams of PDA (Merck) in 1 liter of demineralized water.\nThe medium is sterilized by autoclave 15 minutes at 121° C. After 14 days of growth, the spores of Alternaria alternata are recovered in sterilized water and the concentration of spores adjusted to 10^6 spores per ml.\nThe compounds is solubilized in DMSO and added to sterile liquid glucose/mycopeptone medium (14.6 g/l of D-glucose, 7.1 g/l of mycological peptone (Oxoid) and 1.4 g/l of yeast extract (Merck)) at a concentration of 2 ppm.\nThe medium is inoculated with the spore suspension at a concentration of 10^5 spores per ml.\nThe efficacy of the compounds is assessed by OD measurement at 620 nm after 5 days at 20° C. in comparison with a control."}}, "note": "Some results were stated once for a whole list of compounds, not compound by compound."}
{"smiles": "O=C(NOCc1ncc(C(F)(F)F)cc1Cl)c1ccccc1Cl", "note": "[Compound 4, 2-chloro-N-{[3-chloro-5-(trifluoromethyl)pyridin-2-yl]methoxy}benzamide]", "values": [{"measurement": "protection", "setting": "[1]", "value": "at least 70%"}, {"measurement": "protection", "setting": "[2]", "value": "at least 50%"}]}
